Experimental data from patent US20040137000A1.
Substitutions are numbered along the chain they refer to. No constants are given. Whether binding was seen depends on the method and setting. Some results given as binding are weak or reduced against the parent protein; the word gives no strength.

B1: deimmunized B4 antibody DIVHv.2/VKv.3 produced by NS0 cells (antibody, human IgG1, V domains shown)
VH: QVQLVQSGAEVKKPGASVKVSCKASGYTFTDYVIHWVRQATGQGLEWIGEIYPGSGSAYSNAKFKDRVTITADKSTNTAYMELRSLRSDDTAVYFCARRGNGTGFAYWGQGTLVTVSS
VL: DIVLTQSPASLAVSPGQRATITCKAGQSVDYDGDSYMNWYQQKPGQPPKLLIYVASNLESGIPSRFSGSGSGTDFTLTINPVEENDTATYYCQQSYKDPLAFGPGTKVEIK
B2: deimmunized B4 antibody DIVHv.4/VKv.3 produced by NS0 cells (antibody, human IgG1, V domains shown)
VH: B1 VH with A62S
VL: B1 VL
B3: deimmunized B4 antibody DIVHv.3/VKv.3 produced by NS0 cells (antibody, human IgG1, V domains shown)
VH: B1 VH with R38K
VL: B1 VL
B4: deimmunized B4 antibody DIVHv.4/VKv.2 produced by NS0 cells (antibody, human IgG1, V domains shown)
VH: B1 VH with A62S
VL: B1 VL with A101T, P104Q
B5: deimmunized B4 antibody DIVHv.3/VKv.1 produced by NS0 cells (antibody, human IgG1, V domains shown)
VH: B1 VH with R38K
VL: B1 VL with P15L, S64A, T78N, N80H, T87A, A101T, P104Q, V108L
B6: deimmunized B4 antibody DIVHv.3/VKv.2 produced by NS0 cells (antibody, human IgG1, V domains shown)
VH: B1 VH with R38K
VL: B1 VL with A101T, P104Q
B7: deimmunized B4 antibody DIVHv.2/VKv.1 produced by NS0 cells (antibody, human IgG1, V domains shown)
VH: B1 VH
VL: B1 VL with P15L, S64A, T78N, N80H, T87A, A101T, P104Q, V108L
B8: deimmunized B4 antibody DIVHv.4/VKv.1 produced by NS0 cells (antibody, human IgG1, V domains shown)
VH: B1 VH with A62S
VL: B1 VL with P15L, S64A, T78N, N80H, T87A, A101T, P104Q, V108L
B9: deimmunized B4 antibody DIVHv.2/VKv.2 produced by NS0 cells (antibody, human IgG1, V domains shown)
VH: B1 VH
VL: B1 VL with A101T, P104Q
B10: murine monoclonal antibody B4 (antibody, V domains shown)
VH: QVQLQQSGPELVKPGASVRMSCKASGYTFTDYVIHWVKQRTGQGLEWIGEIYPGSGSAYSNAKFKDKATLTADKSSNTAYMQLSSLTSEDSAVYFCARRGNGTGFAYWGQGTLVTVSA
VL: DIVLTQSPASLAVSLGQRATISCKAGQSVDYDGDSYMNWYQQKPGQPPKLLIYVASNLESGIPARFSGSGSGTDFTLNIHPVEEEDAATYYCQQSYKDPLTFGAGTKLELK
B11: chimeric B4 antibody (antibody, human IgG1, V domains shown)
VH: B10 VH
VL: B10 VL

target: recombinant soluble CD4 (rsCD4) (UniProt P01730); test: ELISA on rsCD4

binding, binds:
B1
B2
B3
B4
B5
B6
B7
B8
B9

target: recombinant soluble CD4 (rsCD4) (UniProt P01730); test: ELISA, rsCD4 coated at 0.25 µg/ml, peroxidase anti-mouse

binding, binds:
B10

target: recombinant soluble CD4 (rsCD4) (UniProt P01730); test: ELISA, rsCD4 coated on the plate

binding, binds:
B11
